{"source": "patent US20060004019A1", "about": "“Steroid sparing agents and methods of using same” (priority 2004, published 2006)", "system": "Lewis X Brown Norway F1 hearts transplanted to Lewis recipients", "experiment": "Rat cardiac allograft model, Allograft Study 1 (summary across three studies)", "assay_type": "in vivo", "source_text": "Allograft rejection is defined as the expression of an immune reaction of the recipient, against foreign antigens of the transplanted tissue. This reaction is mediated by T lymphocytes. Cell adhesion events are of critical importance in the T-cell recognition of alloantigens, the trafficking of recipient immune and inflammatory cells into the graft, and the execution of cell-mediated effector functions. […] This beneficial therapeutic effect correlates with decreased infiltration by α4β1 positive cells, deposition of CS1-FN, and endothelial staining for VCAM-1, as determined by immunohistology/RNAse protection assay.\nTo further evaluate the therapeutic potential of α4β1 targeted therapy in transplantation rejection, three studies were conducted in a well-defined rat cardiac transplant model. The following report summarizes the data across all three studies.", "note": "At least one structure is not confirmed: it was looked up by name or label, or the drawing left a doubt."}
{"smiles": "CC(C)OC(=O)[C@H](Cc1ccc(OC(=O)N(C)C)cc1)NC(=O)[C@H]1N(S(=O)(=O)c2cnn(C)c2)CSC1(C)C", "values": [{"measurement": "graft survival rate on day +14", "result": "33-26"}]}
